Screen size: about 290,000 compounds; about 110 (0.038%) were called active. The inconclusive results got no clear call from the source; some entries with a clear call stand among them for comparison. Calls follow the shape of the dose curve; as a rule, active = well fitted inhibition curve with a large enough effect in the polarisation, with a control signal flat (not every such curve was filed as active); inconclusive = small, poorly fitted or top-dose-only effect, or effect the other way, or a change in a side signal; inactive = no such curve, though single readings can be large or run the other way; the % refers to the polarisation. Where the call is inconclusive, the potency comes from a doubtful curve fit. A note “side channel” means that the fit belongs to a control or component signal, not to the main read-out.
Molecular target: Histone-lysine N-methyltransferase 2A (Homo sapiens) (UniProt Q03164)
Test: qHTS Fluorescence Polarization Assay for Inhibitors of MLL CXXC domain - DNA interaction
Conditions: MLL-CXXC / FITC-HOXA9 DNA fluorescence polarization; activity change, negative = inhibition: at 115 µM (top of the series)
Summary of the method: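 Purified MLL-CXXC (added from a 7 uM solution) was preincubated 5 min at ambient with pinned compounds in 50 mM Tris-HCl pH 7.5, 50 mM NaCl, 1 mM DTT, 0.05% BSA. Fluorescein-labeled HOX-A9 DNA (50 nM solution) followed, 30 min, then polarization read.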
Potency is read from the fitted curve at half-maximal effect.

Sequences of proteins named here, by UniProt entry; tags and fusion partners are left off.
UniProt Q03164, whole entry, looked up: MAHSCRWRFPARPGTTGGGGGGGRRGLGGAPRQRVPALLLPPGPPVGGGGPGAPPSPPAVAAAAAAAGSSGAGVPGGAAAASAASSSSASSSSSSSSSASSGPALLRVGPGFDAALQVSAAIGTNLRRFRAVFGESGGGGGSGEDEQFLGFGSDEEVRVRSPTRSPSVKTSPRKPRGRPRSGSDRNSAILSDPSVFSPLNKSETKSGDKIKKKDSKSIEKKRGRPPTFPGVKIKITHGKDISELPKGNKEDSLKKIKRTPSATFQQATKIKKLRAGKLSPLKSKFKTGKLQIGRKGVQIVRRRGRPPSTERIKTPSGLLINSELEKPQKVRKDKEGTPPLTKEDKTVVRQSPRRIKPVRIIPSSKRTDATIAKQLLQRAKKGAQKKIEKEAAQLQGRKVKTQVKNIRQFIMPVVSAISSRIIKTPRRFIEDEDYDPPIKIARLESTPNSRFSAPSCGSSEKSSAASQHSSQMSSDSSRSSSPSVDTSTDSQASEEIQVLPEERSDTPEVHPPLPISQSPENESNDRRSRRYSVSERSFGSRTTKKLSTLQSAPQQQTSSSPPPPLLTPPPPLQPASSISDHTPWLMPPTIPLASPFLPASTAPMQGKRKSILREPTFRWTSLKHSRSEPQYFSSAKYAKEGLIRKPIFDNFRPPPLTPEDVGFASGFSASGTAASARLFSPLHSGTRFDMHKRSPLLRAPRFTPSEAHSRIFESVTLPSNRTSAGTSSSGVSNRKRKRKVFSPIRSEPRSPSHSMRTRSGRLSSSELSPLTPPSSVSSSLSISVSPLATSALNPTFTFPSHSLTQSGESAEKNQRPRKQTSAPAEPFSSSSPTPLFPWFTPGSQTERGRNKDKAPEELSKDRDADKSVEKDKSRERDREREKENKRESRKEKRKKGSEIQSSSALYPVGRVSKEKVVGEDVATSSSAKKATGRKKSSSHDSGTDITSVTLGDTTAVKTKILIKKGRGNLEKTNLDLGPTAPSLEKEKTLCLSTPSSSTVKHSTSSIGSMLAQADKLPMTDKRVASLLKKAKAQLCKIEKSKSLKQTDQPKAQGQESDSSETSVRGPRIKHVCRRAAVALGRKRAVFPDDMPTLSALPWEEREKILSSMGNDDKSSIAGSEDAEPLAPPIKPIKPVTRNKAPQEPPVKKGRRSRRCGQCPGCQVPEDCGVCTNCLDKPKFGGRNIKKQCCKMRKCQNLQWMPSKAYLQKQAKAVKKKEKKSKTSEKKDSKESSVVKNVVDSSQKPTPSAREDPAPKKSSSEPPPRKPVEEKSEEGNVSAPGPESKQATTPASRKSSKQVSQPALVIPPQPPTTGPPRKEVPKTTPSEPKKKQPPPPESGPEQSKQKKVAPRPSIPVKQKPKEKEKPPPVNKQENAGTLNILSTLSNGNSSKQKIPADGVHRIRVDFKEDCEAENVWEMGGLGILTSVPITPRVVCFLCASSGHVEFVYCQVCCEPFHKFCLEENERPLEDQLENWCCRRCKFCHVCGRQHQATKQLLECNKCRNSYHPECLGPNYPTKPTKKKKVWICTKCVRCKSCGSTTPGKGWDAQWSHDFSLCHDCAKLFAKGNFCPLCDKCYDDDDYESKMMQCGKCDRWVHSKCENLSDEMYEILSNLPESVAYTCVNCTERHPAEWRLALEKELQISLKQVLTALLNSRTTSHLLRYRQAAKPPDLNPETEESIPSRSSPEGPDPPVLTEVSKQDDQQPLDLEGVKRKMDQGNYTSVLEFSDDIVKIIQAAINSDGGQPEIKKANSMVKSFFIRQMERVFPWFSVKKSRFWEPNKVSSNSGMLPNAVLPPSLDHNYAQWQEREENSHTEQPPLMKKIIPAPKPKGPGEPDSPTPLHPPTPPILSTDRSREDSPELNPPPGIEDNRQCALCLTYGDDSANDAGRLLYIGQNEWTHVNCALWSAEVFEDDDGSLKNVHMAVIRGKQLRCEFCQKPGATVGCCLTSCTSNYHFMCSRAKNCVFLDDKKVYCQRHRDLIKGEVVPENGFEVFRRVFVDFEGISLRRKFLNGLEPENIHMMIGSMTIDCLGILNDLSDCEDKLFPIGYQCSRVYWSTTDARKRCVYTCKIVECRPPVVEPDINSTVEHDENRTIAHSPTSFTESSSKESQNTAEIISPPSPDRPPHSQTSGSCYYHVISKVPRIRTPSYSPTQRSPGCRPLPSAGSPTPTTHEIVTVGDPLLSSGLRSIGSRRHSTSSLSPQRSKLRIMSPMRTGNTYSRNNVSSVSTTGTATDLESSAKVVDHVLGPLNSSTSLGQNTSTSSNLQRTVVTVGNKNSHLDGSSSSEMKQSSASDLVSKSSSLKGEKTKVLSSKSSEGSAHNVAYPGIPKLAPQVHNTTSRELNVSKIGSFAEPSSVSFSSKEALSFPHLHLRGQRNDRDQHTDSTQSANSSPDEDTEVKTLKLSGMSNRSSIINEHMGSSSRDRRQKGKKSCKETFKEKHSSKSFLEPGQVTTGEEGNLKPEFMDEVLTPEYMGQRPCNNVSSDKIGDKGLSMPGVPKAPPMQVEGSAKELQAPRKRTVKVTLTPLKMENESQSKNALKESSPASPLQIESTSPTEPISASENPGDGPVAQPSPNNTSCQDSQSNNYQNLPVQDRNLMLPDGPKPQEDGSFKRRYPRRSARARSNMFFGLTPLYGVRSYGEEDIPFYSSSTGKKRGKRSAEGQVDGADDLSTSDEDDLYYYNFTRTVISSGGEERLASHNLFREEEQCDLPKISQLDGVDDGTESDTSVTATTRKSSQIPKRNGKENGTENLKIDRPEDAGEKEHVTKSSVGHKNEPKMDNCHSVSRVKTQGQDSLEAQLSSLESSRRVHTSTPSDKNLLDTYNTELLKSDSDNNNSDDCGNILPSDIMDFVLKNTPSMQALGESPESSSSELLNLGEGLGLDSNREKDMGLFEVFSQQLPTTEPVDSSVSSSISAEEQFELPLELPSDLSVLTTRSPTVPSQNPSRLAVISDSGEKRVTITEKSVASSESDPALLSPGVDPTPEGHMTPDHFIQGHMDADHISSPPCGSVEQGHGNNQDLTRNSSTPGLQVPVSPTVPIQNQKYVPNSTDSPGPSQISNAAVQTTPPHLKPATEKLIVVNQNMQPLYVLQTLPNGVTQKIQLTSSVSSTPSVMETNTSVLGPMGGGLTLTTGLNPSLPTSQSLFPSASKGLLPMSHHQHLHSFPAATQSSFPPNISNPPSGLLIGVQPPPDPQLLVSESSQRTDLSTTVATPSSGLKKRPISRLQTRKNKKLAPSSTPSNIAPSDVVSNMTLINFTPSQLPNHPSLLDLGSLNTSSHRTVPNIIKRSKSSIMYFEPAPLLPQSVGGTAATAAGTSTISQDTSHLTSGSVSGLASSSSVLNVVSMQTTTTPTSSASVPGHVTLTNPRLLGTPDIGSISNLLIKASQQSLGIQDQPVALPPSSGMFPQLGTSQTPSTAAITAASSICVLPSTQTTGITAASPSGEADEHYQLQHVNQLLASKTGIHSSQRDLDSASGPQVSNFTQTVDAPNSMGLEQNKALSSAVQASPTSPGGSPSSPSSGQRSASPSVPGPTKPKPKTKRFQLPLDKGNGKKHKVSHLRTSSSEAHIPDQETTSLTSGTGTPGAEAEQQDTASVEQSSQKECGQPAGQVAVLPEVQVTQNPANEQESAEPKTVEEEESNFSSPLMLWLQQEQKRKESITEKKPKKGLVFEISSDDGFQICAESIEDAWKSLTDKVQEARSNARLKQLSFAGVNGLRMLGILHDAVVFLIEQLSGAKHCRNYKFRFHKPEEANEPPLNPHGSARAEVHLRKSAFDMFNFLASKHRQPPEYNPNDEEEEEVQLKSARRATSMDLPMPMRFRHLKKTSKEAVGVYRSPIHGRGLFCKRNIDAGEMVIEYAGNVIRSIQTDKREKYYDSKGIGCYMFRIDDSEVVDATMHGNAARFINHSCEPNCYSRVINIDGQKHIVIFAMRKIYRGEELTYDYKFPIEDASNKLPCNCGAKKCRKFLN

SMILES	Potency	activity change, negative = inhibition
COC(=O)c1ccc(/C=C2\N=C(SC)SC2=O)cc1	inconclusive: 3.55 µM [quencher, side channel, partial curve]	
CC1(C)CC(=O)C(C(c2ccc(F)cc2)C2C(=O)CC(C)(C)CC2=O)C(=O)C1		inactive: 3.46%
COC(=O)c1cc2n(n1)CCN(Cc1cccc(OC)c1)C2=O		inactive: -4.06%
COC(C[C@@H](O)[C@@H](C)[C@H](O)COCc1ccccc1)OC	inconclusive: 8.91 µM [fluorescent, side channel, full curve]	
O=C([C@@H]1Cc2ccccc2CN1)N1CCN(Cc2ccccc2)CC1	inconclusive: 8.91 µM [inhibitor, single point]	
[O-][n+]1ccccc1SSc1cccc[n+]1[O-]		inactive: -26.6%
Cc1ccc(-n2c(N)c(S(=O)(=O)c3ccccc3)c3nc4ccccc4nc32)cc1	inconclusive: 12.6 µM [fluorescent, side channel, full curve]	
CC(=O)c1cccc(NC(=O)c2cccc(S(=O)(=O)N3CCOCC3)c2)c1	inconclusive: 25.1 µM [fluorescent, side channel, partial curve]	
COc1ccc(NC(=O)Cc2c(C)n(C(=O)c3ccc(Cl)cc3)c3ccc(OC)cc23)cc1	inconclusive: 12.6 µM [fluorescent, side channel, partial curve]	
N#Cc1cc(S(=O)(=O)c2ccc(Cl)cc2)c(N)[nH]c1=O	inconclusive: 31.6 µM [fluorescent, side channel, single point]	
O=c1cc(-c2cccnc2)oc2c1ccc1ccccc12	inconclusive: 44.7 µM [quencher, side channel, partial curve]	
CC(=O)N/N=C(\N)c1nonc1N	inconclusive: 1 µM [inhibitor, full curve, poor fit]	
CC(=O)/C=C/c1ccccc1Oc1c(F)c(F)nc(F)c1F	inconclusive: 50.1 µM [inhibitor, single point]	
Cc1c(-c2ccc(O)cc2)nc2nc(-c3ccccc3)c(-c3ccccc3)nn12	inconclusive: 11.2 µM [fluorescent, side channel, full curve]	
CCOc1ccccc1NC(=O)CN(c1ccc(OC)cc1OC)S(=O)(=O)c1ccccc1[N+](=O)[O-]	inconclusive: 14.1 µM [inhibitor, single point]	
CC(N)(Cc1ccc(O)c(O)c1)C(=O)O (centres undefined)		inactive: -19.3%
O=C(Nc1ccc(OC(F)F)cc1)c1ncc(Cl)c(Cl)c1Cl	inconclusive: 28.2 µM [fluorescent, side channel, partial curve]	
CS(=O)(=O)C1=NN2C(=N)/C(=C\c3ccc(OCCOc4ccccc4)cc3)C(=O)N=C2S1	inconclusive: 89.1 µM [inhibitor, single point]	
OC(CNCCC1C=Nc2ccccc21)Cn1c2ccc(Cl)cc2c2cc(Cl)ccc21 (centres undefined)	inconclusive: 14.1 µM [quencher, side channel, full curve]	
O=C(NCc1ccco1)C(c1ccccc1)N(CC1CCCO1)C(=O)Cn1nnc2ccccc21 (centres undefined)		inactive: 4.54%
Cc1cccc(CN2CCC(C(=O)Nc3ccc(Oc4cccnc4)cc3)CC2)c1	inconclusive: 15.8 µM [quencher, single point]	
Cc1ccc2cc(/C=C3\N=C(c4ccccc4)OC3=O)c(N3CCOCC3)nc2c1	inconclusive: 31.6 µM [fluorescent, side channel, partial curve]	

SMILES	Potency	activity change, negative = inhibition
Cn1c2ccccc2c(=O)n2c(=O)c3ccccc3cc12	inconclusive: 31.6 µM [inhibitor, partial curve]	
Cc1cccc(CN2CCCC(C(=O)Nc3ccccc3Oc3cccnc3)C2)c1 (centres undefined)	inconclusive: 14.1 µM [fluorescent, side channel, single point]	
COc1cc(CC(=O)OCC(=O)N2CCCCC2)cc(OC)c1OC	inconclusive: 70.8 µM [inhibitor, single point]	
O=C(N/N=C(\c1ccccc1)c1cccnc1)c1cccc(F)c1		inactive: 3.33%
O=C(NCc1ccc(-c2nc3ccccc3s2)cc1)c1ccco1		inactive: -2.78%
CC(C)(C)NC(=O)NC(=O)CN1CCCc2ccccc21		inactive: 5.53%
COc1ccc2c(c1)C(=O)N(c1ccccc1OC)C(=O)C2	inconclusive: 28.2 µM [fluorescent, side channel, partial curve]	
Oc1ccc(N=Nc2ccccc2-c2nn[nH]n2)c(O)c1	inconclusive: 35.5 µM [fluorescent, side channel, partial curve]	
Cc1occc1-c1nnc(SCC(=O)Nc2ccc(F)cc2)n1C	inconclusive: 35.5 µM [fluorescent, side channel, single point]	
Cc1sc2cc3c(c(C(=O)c4ccccc4)[n+]2c1C)-c1cccc2cccc-3c12	inconclusive: 35.5 µM [quencher, side channel, single point]	
COc1ccc(N2C(=O)CSC2c2ccccc2[N+](=O)[O-])cc1 (centres undefined)	inconclusive: 8.91 µM [inhibitor, single point]	
O=S(=O)(Nc1ccc2c(c1)OCCO2)c1ccc(F)c(F)c1		inactive: 3.81%
OC(COc1ccc(Cl)cc1)CN1CCN(c2ccccc2)CC1 (centres undefined)	inconclusive: 50.1 µM [fluorescent, side channel, single point]	
COc1ccc(S(=O)(=O)NCc2ccc(C(=O)N3CCc4ccccc4C3)cc2)cc1	inconclusive: 89.1 µM [inhibitor, single point]	
Cc1c(CCC(=O)N[C@@H](C)C(=O)O)c(=O)oc2cc3oc4c(c3cc12)CCCC4	inconclusive: 12.6 µM [inhibitor, single point]	
CC12CCC3C(CCC4N(CCO)CCC34C)C1CCC2O (centres undefined)	inconclusive: 10 µM [quencher, side channel, single point]	
O=C(CCl)NNC(=O)c1c(O)c2ccccc2[nH]c1=O		inactive: 28.4%
O=[N+]([O-])c1ccc(COn2nnc3ccccc32)cc1	inconclusive: 4.47 µM [quencher, side channel, partial curve]	
C/C(=N/NC(=O)c1cc2ccccc2cc1O)C1C(=O)c2ccccc2C1=O		inactive: -13.3%
COC(=O)c1cc(CNC(=O)c2ccc(N3CCCC3)c([N+](=O)[O-])c2)ccc1OC	inconclusive: 14.1 µM [quencher, side channel, single point]	
Cc1nccn1CC(O)Cn1c2ccccc2c2ccccc21 (centres undefined)		inactive: 5.56%
COc1ccc(N2C(=O)CS/C2=N\C(=S)Nc2ccccc2)cc1		inactive: -3.61%

SMILES	Potency	activity change, negative = inhibition
COC(=O)c1cn(C(=O)/C=C/c2ccc(OC)c(OC)c2)c2ccccc12	inconclusive: 6.31 µM [inhibitor, full curve]	
CCN(CC)C(=O)COC(=O)c1cc(-c2ccco2)nc2ccccc12		inactive: -17.5%
COc1ccc(OC)c2c(C)cc(N3CCN(C(=O)c4ccc(C)cc4)CC3)nc12		inactive: 0.603%
CCOC(CNC(=O)c1cccn2c(=O)c3cc(Cl)ccc3nc12)OCC	inconclusive: 22.4 µM [quencher, side channel, partial curve]	
CC1CCN(CCNC(=O)C2CCN(S(=O)(=O)c3cccc4nsnc34)CC2)CC1	inconclusive: 89.1 µM [quencher, side channel, single point]	
CC(=O)CC(=O)Nc1ccc2ccccc2c1	inconclusive: 1.58 µM [fluorescent, side channel, full curve, poor fit]	
Cc1ccc(-c2nnc(Nc3ccc(C(=O)N(C)C)cc3)c3ccccc23)cc1S(=O)(=O)NCC1CCCO1 (centres undefined)	inconclusive: 7.08 µM [quencher, side channel, single point]	
COc1ccc(OC)c(NC(=O)c2cccc(Cn3cc(Br)c([N+](=O)[O-])n3)c2)c1		inactive: 14.3%
COc1cccc(CSc2nnc(-c3ccncc3)n2N)c1	inconclusive: 14.1 µM [inhibitor, single point]	
Cc1ccc(NC(=O)NNC(=O)COc2ccc([N+](=O)[O-])cc2)cc1C	inconclusive: 8.91 µM [fluorescent, side channel, single point]	
CCN(CC)C(=O)C1CCCN(Cc2ccccc2)C1 (centres undefined)		inactive: -0.577%
Cc1cc(/C=C2\SC(=S)NC2=O)cc(C)c1O	inconclusive: 31.6 µM [fluorescent, side channel, partial curve]	
O=C(Nc1ccc(F)cc1)N1CCCCCC1	inconclusive: 8.91 µM [fluorescent, side channel, single point]	
S=c1[nH]nc(-c2ccco2)n1/N=C/c1ccc(Cl)cc1Cl	inconclusive: 25.1 µM [inhibitor, partial curve]	
Cc1cccc(C)c1NC(=O)COC(=O)c1cc(=O)c2ccccc2o1		inactive: -2.3%
NC(N)=Nc1nc(-c2ccccc2)c2cc(Cl)ccc2n1	inconclusive: 35.5 µM [quencher, side channel, partial curve]	
CC1CCCN(C(=O)c2cccc(S(=O)(=O)Nc3cc(C(F)(F)F)ccc3Cl)c2)C1 (centres undefined)	inconclusive: 8.91 µM [quencher, side channel, single point]	
Cc1ccccc1NC1=C/C(=N\S(=O)(=O)c2ccc(C(=O)O)cc2)c2ccccc2C1=O	inconclusive: 14.1 µM [inhibitor, single point]	
Cc1ccc(-c2cc(-c3ccccc3)nc(N)c2C#N)o1	inconclusive: 44.7 µM [fluorescent, side channel, partial curve]	
CCOC(=O)c1sc2nc(C)nc(SCC(=O)NC(C)CCc3ccccc3)c2c1C (centres undefined)		inconclusive: 10.5% [phenotype inactive]

3 structures out of the list, ordered by count of non-hydrogen atoms, low to high:
SMILES	Potency	activity change, negative = inhibition
S=c1[nH]nc(-c2ccco2)n1/N=C/c1ccc(Cl)cc1Cl	inconclusive: 25.1 µM [inhibitor, partial curve]	
CCN(CC)C(=O)COC(=O)c1cc(-c2ccco2)nc2ccccc12		inactive: -17.5%
COC(=O)c1cn(C(=O)/C=C/c2ccc(OC)c(OC)c2)c2ccccc12	inconclusive: 6.31 µM [inhibitor, full curve]	
